Experimental data: PubChem BioAssay AID1224828 (NIAID, 2016)
In all, the deposit lists about 17,000 reagents; this is an unselected part. In the full data, 762 (4.5%) are marked active. 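Active calls include both raised and lowered p65 entry, mostly lowered; wells with fewer than 50 cells lack a z-score.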 Raw values vary from plate to plate and are shown uncorrected. A number with no mark means an inactive call.

- Assay: 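Knock-downs that increase or decrease LPS-induced p65 nuclear translocation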 (primary screen)
- Cells: mouse RAW264.7 G9 macrophage reporter cells (GFP-p65, Tnf promoter-mCherry)
- Reagent: siRNA pool against mouse genes, 100 nM
- Timing: 2 days siRNA transfection, then 40 min LPS before fixation
- Challenge: LPS (Salmonella minnesota R595) at 10 ng/ml
- Detection: 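Imaged p65 nuclear translocation ratio, normalised to the plate median, converted to robust z-scores and averaged across two replicates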
- Direction: p65 translocation robust z-score: higher = more nuclear NF-kappaB p65 after LPS than the plate median; nuclear/cytoplasmic p65 ratio: higher = more nuclear NF-kappaB p65
- Hit rule: 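Called active when z exceeds 3.3 or falls under -1.56 (median of Tlr4 controls), giving activity score of at least 50; no calls for control wells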
- Calls: active = hit (p65 shift raised or lowered); inactive = no clear change

{"gene": "4833414E09Rik (RIKEN cDNA 4833414E09 gene)", "nuclear/cytoplasmic p65 ratio, rep 1": 1.41, "nuclear/cytoplasmic p65 ratio, rep 2": 1.55, "low cell count flag": "fewer than 50 cells per well; well left out of scoring"}
{"gene": "Prpf39 (pre-mRNA processing factor 39)", "p65 translocation robust z-score": -0.93, "nuclear/cytoplasmic p65 ratio, rep 1": 1.26, "nuclear/cytoplasmic p65 ratio, rep 2": 1.11, "low cell count flag": "enough cells to score"}
{"gene": "Bdh1 (3-hydroxybutyrate dehydrogenase, type 1)", "p65 translocation robust z-score": 0.66, "nuclear/cytoplasmic p65 ratio, rep 1": 1.76, "nuclear/cytoplasmic p65 ratio, rep 2": 1.67, "low cell count flag": "enough cells to score"}
{"gene": "Magea1 (MAGE family member A1)", "p65 translocation robust z-score": "-2.86 (active)", "nuclear/cytoplasmic p65 ratio, rep 1": 1.37, "nuclear/cytoplasmic p65 ratio, rep 2": 1.13, "low cell count flag": "enough cells to score"}
{"gene": "Hace1", "p65 translocation robust z-score": -0.43, "nuclear/cytoplasmic p65 ratio, rep 1": 1.47, "nuclear/cytoplasmic p65 ratio, rep 2": 1.82, "low cell count flag": "enough cells to score"}
{"gene": "Dzip1l (DAZ interacting protein 1-like)", "nuclear/cytoplasmic p65 ratio, rep 1": 1.64, "nuclear/cytoplasmic p65 ratio, rep 2": 1.99, "low cell count flag": "fewer than 50 cells per well; well left out of scoring"}
{"gene": "Csnk1a1 (casein kinase 1, alpha 1)", "p65 translocation robust z-score": 0.56, "nuclear/cytoplasmic p65 ratio, rep 1": 1.76, "nuclear/cytoplasmic p65 ratio, rep 2": 1.47, "low cell count flag": "enough cells to score"}
{"gene": "Fnbp1 (formin binding protein 1)", "p65 translocation robust z-score": 0.67, "nuclear/cytoplasmic p65 ratio, rep 1": 1.78, "nuclear/cytoplasmic p65 ratio, rep 2": 1.47, "low cell count flag": "enough cells to score"}
{"gene": "Cbfb (core binding factor beta)", "p65 translocation robust z-score": -0.25, "nuclear/cytoplasmic p65 ratio, rep 1": 1.39, "nuclear/cytoplasmic p65 ratio, rep 2": 1.38, "low cell count flag": "enough cells to score"}
{"gene": "Vcf1 (VCP nuclear cofactor family member 1)", "p65 translocation robust z-score": -1.27, "nuclear/cytoplasmic p65 ratio, rep 1": 1.35, "nuclear/cytoplasmic p65 ratio, rep 2": 1.61, "low cell count flag": "enough cells to score"}
{"gene": "Adamdec1 (ADAM-like, decysin 1)", "p65 translocation robust z-score": -0.35, "nuclear/cytoplasmic p65 ratio, rep 1": 1.53, "nuclear/cytoplasmic p65 ratio, rep 2": 1.6, "low cell count flag": "enough cells to score"}

Called active, of those listed so far:
{"gene": "Magea1 (MAGE family member A1)", "p65 translocation robust z-score": "-2.86 (active)", "nuclear/cytoplasmic p65 ratio, rep 1": 1.37, "nuclear/cytoplasmic p65 ratio, rep 2": 1.13, "low cell count flag": "enough cells to score"}

The list goes on.
{"gene": "Usp8 (ubiquitin specific peptidase 8)", "p65 translocation robust z-score": -0.4, "nuclear/cytoplasmic p65 ratio, rep 1": 1.44, "nuclear/cytoplasmic p65 ratio, rep 2": 1.46, "low cell count flag": "enough cells to score"}
{"gene": "Epx (eosinophil peroxidase)", "p65 translocation robust z-score": -0.07, "nuclear/cytoplasmic p65 ratio, rep 1": 1.41, "nuclear/cytoplasmic p65 ratio, rep 2": 1.4, "low cell count flag": "enough cells to score"}
{"gene": "Myh3 (myosin, heavy polypeptide 3, skeletal muscle, embryonic)", "p65 translocation robust z-score": -1.2, "nuclear/cytoplasmic p65 ratio, rep 1": 1.18, "nuclear/cytoplasmic p65 ratio, rep 2": 1.2, "low cell count flag": "enough cells to score"}
{"gene": "Shbg (sex hormone binding globulin)", "p65 translocation robust z-score": 0.51, "nuclear/cytoplasmic p65 ratio, rep 1": 1.58, "nuclear/cytoplasmic p65 ratio, rep 2": 1.67, "low cell count flag": "enough cells to score"}
{"gene": "4930542C12Rik (RIKEN cDNA 4930542C12 gene)", "p65 translocation robust z-score": 0.1, "nuclear/cytoplasmic p65 ratio, rep 1": 1.43, "nuclear/cytoplasmic p65 ratio, rep 2": 1.32, "low cell count flag": "enough cells to score"}
{"gene": "Zfat (zinc finger and AT hook domain containing)", "p65 translocation robust z-score": 0.12, "nuclear/cytoplasmic p65 ratio, rep 1": 1.46, "nuclear/cytoplasmic p65 ratio, rep 2": 1.23, "low cell count flag": "enough cells to score"}
{"gene": "Or2b28 (olfactory receptor family 2 subfamily B member 28)", "p65 translocation robust z-score": -0.28, "nuclear/cytoplasmic p65 ratio, rep 1": 1.56, "nuclear/cytoplasmic p65 ratio, rep 2": 1.39, "low cell count flag": "enough cells to score"}
{"gene": "Esd (esterase D/formylglutathione hydrolase)", "p65 translocation robust z-score": -0.02, "nuclear/cytoplasmic p65 ratio, rep 1": 1.44, "nuclear/cytoplasmic p65 ratio, rep 2": 1.38, "low cell count flag": "enough cells to score"}
{"gene": "Ugp2 (UDP-glucose pyrophosphorylase 2)", "p65 translocation robust z-score": 1.01, "nuclear/cytoplasmic p65 ratio, rep 1": 1.84, "nuclear/cytoplasmic p65 ratio, rep 2": 1.52, "low cell count flag": "enough cells to score"}
{"gene": "Htr2b (5-hydroxytryptamine (serotonin) receptor 2B)", "nuclear/cytoplasmic p65 ratio, rep 1": 1.28, "nuclear/cytoplasmic p65 ratio, rep 2": 1.06, "low cell count flag": "fewer than 50 cells per well; well left out of scoring"}
